According to US20100197757A1, “OXINDOLES AS KINASE INHIBITORS” (priority 2005, published 2010):
For at least one compound, name, drawing or mass did not settle the structure.

Tested on: MEK
Assay: IC50 column of the compound table in Example 1 (assay not given)

## N/C(=C1\C(=O)Nc2ccc(Br)cc21)c1ccccc1 [No. k, 3-(Amino-phenyl-methylene)-5-bromo-1,3-dihydro-indol-2-one]
  IC50: 660 nM
